Measured values from patent US20250388688A1 (ETHYREAL BIO, published 2025).
No constants are given. Whether binding was seen depends on the method and setting. Some binding calls cover weakened binding; strength is not graded here.

Protein sequences, listed by entry. Tags and fused reporters are not part of them. Residues count along the entry.
UniProt P16473, residues 22-260: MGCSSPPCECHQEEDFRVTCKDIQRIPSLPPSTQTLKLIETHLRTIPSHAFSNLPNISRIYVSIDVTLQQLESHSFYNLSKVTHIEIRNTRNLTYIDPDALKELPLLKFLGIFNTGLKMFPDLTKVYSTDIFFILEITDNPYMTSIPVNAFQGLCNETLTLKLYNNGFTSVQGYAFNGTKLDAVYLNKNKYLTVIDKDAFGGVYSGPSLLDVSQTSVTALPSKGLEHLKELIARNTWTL

Target: human TSHR (antigen of the yeast display screens) (human) (UniProt P16473)
Test: yeast display flow cytometry, 10 nM huTSHR at pH 7.5 and at pH 5.5; clone binding fluorescence divided by WT binding fluorescence

Binder | binding
T3-1.10 (Fab, V domains shown) VH: EVQLVQSGAEVKKPGESLKISCKGSGYSFTSYWIGWVRQMPGKGLEWMGIIYPGDTDTRYSPSFQGQVTISADKSISTAYLQWSSLKASDTAVYYCVGLDWHYNPLRYWGPGTLVTVSS VL: QSVLTQPPSVSAAPGQKVTISCSGSSSDIGNNYVSWYQQLPGTAPKLLIYDNNKRPSGIPDRFSGSKSGTSATLGITGLQTGDEADYYCGTWESRLGIAVFGGGTQLTVL | binds
T3-1.38 (Fab, V domains shown) VH: EVQLVQSGAEVKKPGESLKISCKGSGYHFTSYWIGWVRQMPGKGLEWMGIIYPGDTDTRYSPSFQGQVTISADKSISTAYLQWSSLKASDTAVYYCVGLDWHYNPLRYWGPGTLVTVSS VL: QSVLTQPPSVSAAPGQKVTISCSGSSSDIGNNYVSWYQQLPGTAPKLLIYDNNKRPSGIPDRFSGSKSGTSATLGITGLQTGDEADYYCGTWESRLGIAVFGGGTQLTVL | binds
T3-1.44 (Fab, V domains shown) VH: EVQLVQSGAEVKKPGESLKISCKGSGYSFTSHWIGWVRQMPGKGLEWMGIIYPGDTDTRYSPSFQGQVTISADKSISTAYLQWSSLKASDTAVYYCVGLDWHYNPLRYWGPGTLVTVSS VL: QSVLTQPPSVSAAPGQKVTISCSGSSSDIGNNYVSWYQQLPGTAPKLLIYDNNKRPSGIPDRFSGSKSGTSATLGITGLQTGDEADYYCGTWESRLGIAVFGGGTQLTVL | binds
T3-1.41 (Fab, V domains shown) VH: EVQLVQSGAEVKKPGESLKISCKGSGYSFHSYWIGWVRQMPGKGLEWMGIIYPGDTDTRYSPSFQGQVTISADKSISTAYLQWSSLKASDTAVYYCVGLDWHYNPLRYWGPGTLVTVSS VL: QSVLTQPPSVSAAPGQKVTISCSGSSSDIGNNYVSWYQQLPGTAPKLLIYDNNKRPSGIPDRFSGSKSGTSATLGITGLQTGDEADYYCGTWESRLGIAVFGGGTQLTVL | binds

Other lines, results leading:

binding | Binder
binds | T3-1.48 (Fab, V domains shown) VH: EVQLVQSGAEVKKPGESLKISCKGSGYHFTSYWIGWVRQMPGKGLEWMGIIYPGDTDTRYSPSFQGQVTISADKSISTAYLQWSSLKASDTAVYYCVGLDWHYNPLRYWGPGTLVTVSS VL: QSVLTQPPSVSAAPGQKVTISCSGSSSDIGRNYVSWYQQLPGTAPKLLIYDNNKRPSGIPDRFSGSKSGTSATLGITGLQTGDEADYYCGTWESRLGIAVFGGGTQLTVL
binds | T3-1.57 (Fab, V domains shown) VH: EVQLVQSGAEVKKPGESLKISCKGSGYHFHSYWIGWVRQMPGKGLEWMGIIYPGDTDTRYSPSFQGQVTISADKSISTAYLQWSSLKASDTAVYYCVGLDWHYNPLRYWGPGTLVTVSS VL: QSVLTQPPSVSAAPGQKVTISCSGSSSDIGNNYVSWYQQLPGTAPKLLIYDNNKRPSGIPDRFSGSKSGTSATLGITGLQTGDEADYYCGTWESRLGIAVFGGGTQLTVL
binds | T3-1.53 (Fab, V domains shown) VH: EVQLVQSGAEVKKPGESLKISCKGSGYSFTHYWIGWVRQMPGKGLEWMGIIYPGDTDTRYSPSFQGQVTISADKSISTAYLQWSSLKASDTAVYYCVGLDWHYNPLRYWGPGTLVTVSS VL: QSVLTQPPSVSAAPGQKVTISCSGSSSDIGRNYVSWYQQLPGTAPKLLIYDNNKRPSGIPDRFSGSKSGTSATLGITGLQTGDEADYYCGTWESRLGIAVFGGGTQLTVL
binds | T3-1.59 (Fab, V domains shown) VH: EVQLVQSGAEVKKPGESLKISCKGSGYHFTHYWIGWVRQMPGKGLEWMGIIYPGDTDTRYSPSFQGQVTISADKSISTAYLQWSSLKASDTAVYYCVGLDWHYNPLRYWGPGTLVTVSS VL: QSVLTQPPSVSAAPGQKVTISCSGSSSDIGNNYVSWYQQLPGTAPKLLIYDNNKRPSGIPDRFSGSKSGTSATLGITGLQTGDEADYYCGTWESRLGIAVFGGGTQLTVL
